## Screening data

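293T-iDUX4 cells carrying a ZSCAN4-driven Gaussia luciferase and a tet-on Italica luciferase control; the gap between the two luminescence signals is read after 24 h.
The test concentration is not given here.
Percent difference between the Gaussia and Italica channels; more negative values mean more selective suppression of the DUX4 reporter, and higher values mean less activity.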

Values are in %.
How 0% and 100% were set is not given here.
Common to all entries: measured here: selective DUX4 reporter inhibition.
This is a side read-out of the assay, for part of the compounds, not drawn at random.

SMILES	Gaussia minus Italica difference (%)
CC(=O)N1CCCCN2[C@H](CO)[C@H](c3ccc(-c4ccc(F)cc4)cc3)[C@@H]2C1	3.942
C[C@@H]1CCCCO[C@@H](CN(C)C(=O)NC2CCCCC2)[C@H](C)CN([C@H](C)CO)C(=O)c2cc(NC(=O)Cc3ccccc3)ccc2O1	11.49
CN(C)C(=O)c1cccc(-c2ccc3c(c2)[C@H]2[C@H](CCN2C(=O)C2CCOCC2)[C@H](CO)N3)c1	-11.08
COc1cccc(C(=O)Nc2ccc3c(c2)OC[C@H](C)N(CCc2ccccc2)C[C@@H](C)[C@@H](OC)CN(C)C3=O)c1	-12.07
O=C(CC1CC1)Nc1ccc2c(c1)[C@@H]1C[C@@H](CC(=O)NC3CCCCC3)O[C@@H](CO)[C@@H]1O2	-6.829
COc1ccc2c3c(n(C)c2c1)[C@H](CO)N(C(=O)Nc1ccc(F)cc1)CC31CCN(C(=O)CC2CC2)CC1	-7.894
O=C(C[C@H]1C[C@@H]2c3cc(NC(=O)Nc4ccccc4)ccc3O[C@@H]2[C@@H](CO)O1)NCc1ccccc1	-8.069
COc1ccc(S(=O)(=O)N2C[C@@H](O)COC[C@H]3O[C@H](CC(=O)NCc4ccc(Cl)c(Cl)c4)CC[C@@H]32)cc1	-1.403
COc1cccc(-c2ccc([C@H]3[C@H]4CN(C(=O)c5ccc6c(c5)OCO6)CCCCN4[C@H]3CO)cc2)c1	-18.34
CCC(=O)N1CC(=O)N2[C@H](CO)[C@@H](c3ccc(-c4ccccc4F)cc3)[C@@H]2C1	-9.682
N#Cc1ccc(-c2ccc3c(c2)[C@H]2[C@H](CCN2C(=O)c2ccc4c(c2)OCO4)[C@H](CO)N3)cc1	-21.76
C[C@@H]1CN([C@@H](C)CO)C(=O)c2ccccc2-c2ccccc2CO[C@@H]1CN(C)S(=O)(=O)c1ccc(C(F)(F)F)cc1	-11.43
CCCNC(=O)N1[C@H](CO)[C@H](c2ccccc2-c2cccc(C)c2)[C@@H]1C#N	1.145
COc1ccc(-c2ccc3c(c2)[C@@H]2[C@@H](CCN2S(=O)(=O)c2ccccc2F)[C@@H](CO)N3)cc1	32.04
O=C(C[C@@H]1C[C@H]2c3cc(NC(=O)Nc4ccccc4F)ccc3O[C@H]2[C@H](CO)O1)NCc1ccc(Oc2ccccc2)cc1	-6.467
Cc1ccccc1-c1ccc([C@H]2[C@@H](CO)N3CCCCN(C(=O)Nc4cccc(F)c4)C[C@@H]23)cc1	-14.7
COc1ccc2c3c([nH]c2c1)[C@H](CO)N(Cc1ccccc1Cl)CC31CN(C(C)=O)C1	1.125
C[C@H](CO)N1C[C@H](C)[C@H](CN(C)C(=O)c2ccc(F)cc2)OCc2ccccc2-c2c(n(C)c3ccccc23)C1=O	4.855
COc1cccc(CN2C[C@@H]3N[C@H](C2)C3c2ccc(-c3cccc(C#N)c3)cc2)c1 (stereo not given in full)	-23.59
O=C(C1CCCC1)N1[C@@H](CO)[C@@H](c2ccccc2)C12CN(CCC(F)(F)F)C2	-8.959
CO[C@H]1CN(C)C(=O)c2cc(NC(=O)c3ccc(Oc4ccccc4)cc3)ccc2OC[C@H](C)NC[C@H]1C	26.93
COc1cccc(-c2ccc(C3[C@@H]4CN(C(=O)c5cnccn5)C[C@H]3N4)cc2)c1 (stereo not given in full)	-22.6
COCC(=O)N1CCCCN2[C@H](CO)[C@@H](c3ccc(C#Cc4ccccc4)cc3)[C@@H]2C1	-9.275
COc1cccc(S(=O)(=O)N(C)C[C@@H]2OCc3ccccc3-c3c(n(C)c4ccccc34)C(=O)N([C@H](C)CO)C[C@@H]2C)c1	11.46
COc1ccc2c3c([nH]c2c1)[C@@H](CO)N(C(=O)c1ccccc1)CC31CCN(C(=O)c2cccc(F)c2)CC1	-20.65
O=C(Cc1ccccn1)N1CCCCN2[C@H](CO)[C@H](c3ccc(C#Cc4ccccc4)cc3)[C@@H]2C1	-13.95
O=C(C[C@@H]1CC[C@@H]2[C@H](COC[C@@H](O)CN2Cc2cccc(-c3ccncc3)c2)O1)N1CCOCC1	5.167
N#C[C@@H]1[C@@H](c2ccccc2-c2cccc(F)c2)[C@H](CO)N1C(=O)NC1CCCCC1	-10.36
C[C@@H](NC(=O)C[C@@H]1CC[C@@H]2[C@H](COC[C@H](O)CN2Cc2ccc(C(F)(F)F)cc2)O1)c1ccccc1	-20.77
COc1cccc(NC(=O)N[C@@H]2C=C[C@H](CC(=O)Nc3ccc(-c4ccccc4)cc3)O[C@@H]2CO)c1	-9.358
COc1ccc(CN2CC3(CCN(Cc4ccccn4)CC3)c3c(n(C)c4cc(OC)ccc34)[C@H]2CO)cc1	14.78
O=C(C[C@@H]1CC[C@H]2[C@@H](COC[C@@H](O)CN2C(=O)c2ccc(F)cc2)O1)Nc1ccc(-c2ccccc2)cc1	-12.01
OC[C@H]1[C@@H](c2ccc(C#Cc3ccccc3F)cc2)[C@@H]2CN(CC3CCOCC3)CCCCN12	-21.59
N#C[C@@H]1[C@H](c2ccccc2/C=C/c2ccccc2)[C@H](CO)N1S(=O)(=O)c1ccc(F)cc1	2.059
CN(C)C(=O)c1ccc(-c2ccc3c(c2)[C@H]2[C@H](CCN2S(=O)(=O)c2ccccc2)[C@H](CO)N3)cc1	14.97
COc1cccc(-c2ccc(C3[C@@H]4CN(C(=O)Nc5ccccc5F)C[C@H]3N4)cc2)c1 (stereo not given in full)	-4.137
O=C(C[C@@H]1CC[C@@H]2[C@H](COC[C@@H](O)CN2Cc2ccc(Oc3ccccc3)cc2)O1)N1CCN(c2ccccc2)CC1	-7.278
CCCNC(=O)N1[C@H](CO)[C@H](c2ccccc2-c2cccc(OC)c2)[C@@H]1C#N	1.953
COc1ccccc1CNC(=O)C[C@@H]1C[C@H]2c3cc(NC(=O)Nc4ccc(C(F)(F)F)cc4)ccc3O[C@H]2[C@H](CO)O1	-20.01
CN1CCN(C(=O)C[C@@H]2CC[C@@H]3[C@H](COC[C@@H](O)CN3Cc3cccc(-c4ccncc4)c3)O2)CC1	3.931
CC(C)CC#Cc1ccc([C@@H]2[C@@H](CO)N3C(=O)CN(C(=O)c4ccc5c(c4)OCO5)C[C@H]23)cc1	-9.621
COCC(=O)N1CC2(C1)CN(Cc1cc(F)ccc1F)[C@H](CO)c1[nH]c3cc(OC)ccc3c12	-4.632
COc1ccc2c3c(n(C)c2c1)[C@H](CO)N(C(=O)Nc1ccc(F)cc1)CC31CCN(C(=O)Nc2ccc(F)cc2F)CC1	-7.833
Cc1ccc(S(=O)(=O)Nc2ccc3c(c2)C(=O)N([C@H](C)CO)C[C@@H](C)[C@@H](CN(C)C(=O)NC2CCCCC2)OCCCC[C@H](C)O3)cc1	3.73
CCC(=O)N1C[C@H](C)[C@H](OC)CN(C)C(=O)c2cc(NC(=O)Nc3ccc(Cl)cc3)ccc2OC[C@@H]1C	-0.2589
COc1ccc2c3c(n(C)c2c1)[C@@H](CO)N(C(=O)Nc1ccc(F)cc1)CC31CCN(S(=O)(=O)c2cccc(C)c2)CC1	9.609
CO[C@@H]1CN(C)C(=O)c2cc(NS(=O)(=O)c3cccc(F)c3)ccc2OC[C@H](C)N(Cc2cc(F)ccc2F)C[C@@H]1C	-15.42
C[C@H](CO)N1C[C@H](C)[C@H](CN(C)S(=O)(=O)c2ccccc2F)OCc2ccccc2-c2c(n(C)c3ccccc23)C1=O	8.024
C[C@H]1CN([C@@H](C)CO)C(=O)c2c(c3ccccc3n2C)-c2ccccc2CO[C@H]1CN(C)S(=O)(=O)c1ccccc1C#N	15.8
CN1c2ccc(-c3cccc(C#N)c3)cc2[C@H]2[C@H](CCN2S(=O)(=O)c2ccccc2)[C@@H]1CO	-3.541
CCCNC(=O)N1CC2(C1)[C@H](c1ccccc1)[C@@H](CO)N2Cc1cccc(Cl)c1	-12.12
COc1cc(CN2CC3(CCN(S(=O)(=O)c4cccs4)CC3)c3c(n(C)c4cc(OC)ccc34)[C@H]2CO)cc(OC)c1	-14.71
COc1cccc(-c2ccc([C@H]3[C@@H](CO)N4CCCCN(S(=O)(=O)c5cccs5)C[C@H]34)cc2)c1	-15.11
CN1c2ccc(-c3cccc(F)c3)cc2[C@H]2[C@H](CCN2C(=O)c2ccc3c(c2)OCO3)[C@H]1CO	-23.57
N#Cc1ccc(-c2ccc(C3[C@@H]4CN(S(=O)(=O)c5ccccc5F)C[C@H]3N4)cc2)cc1 (stereo not given in full)	-15.47
COc1ccc2c3c(n(C)c2c1)[C@@H](CO)NCC31CN(C(=O)c2cccc(F)c2)C1	-20.98

Some entries from above, unchanged:

Result for COc1ccc2c3c([nH]c2c1)[C@H](CO)N(Cc1ccccc1Cl)CC31CN(C(C)=O)C1 was Gaussia minus Italica difference 1.125%.
Result for C[C@@H]1CCCCO[C@@H](CN(C)C(=O)NC2CCCCC2)[C@H](C)CN([C@H](C)CO)C(=O)c2cc(NC(=O)Cc3ccccc3)ccc2O1 was Gaussia minus Italica difference 11.49%.
Result for N#C[C@@H]1[C@H](c2ccccc2/C=C/c2ccccc2)[C@H](CO)N1S(=O)(=O)c1ccc(F)cc1 was Gaussia minus Italica difference 2.059%.
Result for O=C(C1CCCC1)N1[C@@H](CO)[C@@H](c2ccccc2)C12CN(CCC(F)(F)F)C2 was Gaussia minus Italica difference -8.959%.
Result for COc1ccc2c3c(n(C)c2c1)[C@H](CO)N(C(=O)Nc1ccc(F)cc1)CC31CCN(C(=O)Nc2ccc(F)cc2F)CC1 was Gaussia minus Italica difference -7.833%.

Data taken from PubChem BioAssay AID1224904, deposited by Broad Institute (2016).